Experimental data as given in paper PMC7864056, “Functional and structural characterization of allosteric activation of phospholipase Cε by Rap1A” (The Journal of Biological Chemistry, 2020).
These are yes or no findings as the source states them, for the method shown. Some entries that bind do so weakly or less than the wild type. Each block holds one molecule with its values, some of them ahead of it.

By UniProt entry, the sequences of proteins in these tests, tags left out. Where a name states a change or a piece, a line headed by the entry shows the natural chain unless it says otherwise. Residues count along the entry.
UniProt Q99P84: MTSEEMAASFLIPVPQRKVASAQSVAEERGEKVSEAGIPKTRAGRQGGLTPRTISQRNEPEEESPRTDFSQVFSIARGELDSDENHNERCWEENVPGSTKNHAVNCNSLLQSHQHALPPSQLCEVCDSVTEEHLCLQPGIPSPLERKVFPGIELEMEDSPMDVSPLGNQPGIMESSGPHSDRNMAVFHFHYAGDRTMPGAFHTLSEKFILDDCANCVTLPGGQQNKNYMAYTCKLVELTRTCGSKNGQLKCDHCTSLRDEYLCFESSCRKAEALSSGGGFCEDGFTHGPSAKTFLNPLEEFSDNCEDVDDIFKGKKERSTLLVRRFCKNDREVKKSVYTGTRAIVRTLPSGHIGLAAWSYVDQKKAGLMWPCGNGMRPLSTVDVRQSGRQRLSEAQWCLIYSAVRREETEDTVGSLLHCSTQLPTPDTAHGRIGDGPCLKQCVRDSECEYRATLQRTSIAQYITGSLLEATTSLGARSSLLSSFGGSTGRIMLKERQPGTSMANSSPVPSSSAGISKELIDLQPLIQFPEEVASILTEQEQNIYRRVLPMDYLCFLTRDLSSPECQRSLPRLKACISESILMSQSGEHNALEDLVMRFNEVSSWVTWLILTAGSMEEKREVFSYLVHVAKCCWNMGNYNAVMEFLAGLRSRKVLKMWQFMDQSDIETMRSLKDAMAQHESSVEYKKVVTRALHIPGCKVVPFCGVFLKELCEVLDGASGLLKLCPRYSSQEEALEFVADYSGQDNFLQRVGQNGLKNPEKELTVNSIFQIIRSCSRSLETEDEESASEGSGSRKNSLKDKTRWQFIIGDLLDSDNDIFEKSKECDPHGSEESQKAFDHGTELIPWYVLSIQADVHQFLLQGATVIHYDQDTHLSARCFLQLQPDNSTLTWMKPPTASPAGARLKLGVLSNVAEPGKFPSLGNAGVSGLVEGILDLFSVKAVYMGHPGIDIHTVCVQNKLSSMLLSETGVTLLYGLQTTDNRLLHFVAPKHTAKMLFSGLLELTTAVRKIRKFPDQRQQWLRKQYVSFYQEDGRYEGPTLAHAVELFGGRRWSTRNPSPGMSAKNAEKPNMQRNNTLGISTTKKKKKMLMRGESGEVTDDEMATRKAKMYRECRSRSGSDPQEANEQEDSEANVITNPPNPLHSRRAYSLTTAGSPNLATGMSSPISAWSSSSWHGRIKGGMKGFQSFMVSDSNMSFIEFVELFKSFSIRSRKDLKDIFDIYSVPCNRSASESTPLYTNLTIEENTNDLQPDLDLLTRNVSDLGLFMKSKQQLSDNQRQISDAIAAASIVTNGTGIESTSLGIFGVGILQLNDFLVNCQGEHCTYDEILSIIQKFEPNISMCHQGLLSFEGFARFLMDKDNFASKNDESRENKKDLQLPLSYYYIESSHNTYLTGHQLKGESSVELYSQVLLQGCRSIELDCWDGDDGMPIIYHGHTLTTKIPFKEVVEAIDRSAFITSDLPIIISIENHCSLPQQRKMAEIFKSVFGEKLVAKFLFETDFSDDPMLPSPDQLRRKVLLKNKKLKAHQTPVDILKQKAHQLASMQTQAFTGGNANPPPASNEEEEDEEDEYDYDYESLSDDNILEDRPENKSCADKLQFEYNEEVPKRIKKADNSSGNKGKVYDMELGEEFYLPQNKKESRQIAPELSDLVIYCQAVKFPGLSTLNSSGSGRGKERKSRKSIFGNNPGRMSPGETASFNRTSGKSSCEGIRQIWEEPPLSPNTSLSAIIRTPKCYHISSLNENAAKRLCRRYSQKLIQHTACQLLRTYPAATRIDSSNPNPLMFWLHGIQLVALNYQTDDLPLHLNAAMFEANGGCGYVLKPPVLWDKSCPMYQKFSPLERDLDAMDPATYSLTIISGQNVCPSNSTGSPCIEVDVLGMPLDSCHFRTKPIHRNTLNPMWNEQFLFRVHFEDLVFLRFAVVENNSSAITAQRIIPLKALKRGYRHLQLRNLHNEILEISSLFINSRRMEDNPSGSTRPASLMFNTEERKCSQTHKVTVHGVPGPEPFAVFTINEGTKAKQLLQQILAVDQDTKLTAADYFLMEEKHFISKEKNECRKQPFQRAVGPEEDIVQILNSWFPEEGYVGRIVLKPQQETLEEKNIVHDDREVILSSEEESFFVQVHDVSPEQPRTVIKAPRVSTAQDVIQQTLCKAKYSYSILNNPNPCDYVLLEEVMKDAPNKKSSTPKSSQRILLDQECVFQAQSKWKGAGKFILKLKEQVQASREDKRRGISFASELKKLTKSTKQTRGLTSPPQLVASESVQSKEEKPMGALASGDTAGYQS
R. norvegicus PLCε PH-COOH variant (residues 837-2282): residues 837-2281 of Q99P84

What was measured:
[1] = target: R. norvegicus PLCε EF3-COOH variant (residues 1284-2282) (R. norvegicus) (UniProt Q99P84); assay: SEC-SAXS; EF3-COOH alone at 2-3 mg/ml in S200 buffer, Superdex 200 Increase 10/300 GL in line with SAXS (BioCAT, APS); both purified
[2] = target: R. norvegicus PLCε PH-COOH variant (residues 837-2282) (R. norvegicus) (UniProt Q99P84); assay: SEC-SAXS; isolated Rap1A G12V-PLCε variant complexes at 2-3 mg/ml in complex S200 buffer, Superdex 200 Increase 10/300 GL in line with SAXS (BioCAT, APS); both purified
[3] = target: R. norvegicus PLCε EF3-COOH variant (residues 1284-2282) (R. norvegicus) (UniProt Q99P84); assay: as above
[4] = target: R. norvegicus PLCε PH-COOH variant (residues 837-2282) (R. norvegicus) (UniProt Q99P84); assay: SEC; 1:3 or 1:5 molar ratio of PLCε variant to Rap1A G12V with 0.5 mM CaCl2, on ice 30 min, then Superdex S200 in 20 mM HEPES pH 8, 50 mM NaCl, 2 mM DTT, 0.1 mM EDTA, 0.1 mM EGTA, 1 mM MgCl2, 0.5 mM CaCl2, 40 uM GTP; fractions identified by SDS-PAGE; both purified
[5] = target: R. norvegicus PLCε EF3-COOH variant (residues 1284-2282) (R. norvegicus) (UniProt Q99P84); assay: as above

binding [1]: no binding (tested: 2–3 mg/ml)
Molecule: R. norvegicus PLCε EF3-COOH variant (residues 1284-2282) (from UniProt Q99P84 1284-2281) (domain or fragment)

binding [2]: binds
binding [3]: binds
binding [4]: binds
binding [5]: binds
B1: constitutively active and prenylated Homo sapiens Rap1A G12V, GTP-bound (natural protein, UniProt P62834 1-184, looked up)
chain: MREYKLVVLGSVGVGKSALTVQFVQGIFVEKYDPTIEDSYRKQVEVDCQQCMLEILDTAGTEQFTAMRDLYMKNGQGFALVYSITAQSTFNDLQDLREQILRVKDTEDVPMILVGNKCDLEDERVVGKEQGQNLARQWCNCAFLESSAKSKINVNEIFYDLVRQINRKTPVEKKKPKKKSCLLL
modifications: prenylated
